# Experimental data from patent publication US7128900B2, “Light-protection agents” (Merck Patent GmbH, priority 2002, dated 2006).
# For at least one compound, name, drawing or mass did not settle the structure.
# Experiment: UV absorption spectrum (UV-VIS) in 2-propanol
# Assay type: physicochemical
# Description: The UV-VIS spectrum was measured on a Varian Cary 100 biospectrophotometer fitted with a heated cell holder (concentration=0.001 g/100 ml of 2-propanol; cell thickness d=1 cm; wavelength range: 200 to 800 nm).
# The UV-VIS spectrum was measured on a Varian Cary 100 biospectrophotometer fitted with a heated cell holder (concentration=0.001 g/ 100 ml of 2-propanol; cell thickness d=1 cm; wavelength range: 200 to 800 nm).
smiles,measurement,value
"COc1ccc(-c2cc(=O)c3ccc(O)cc3o2)cc1 [Example 2, 4′-methoxy-7-hydroxyflavone]",UV absorption maximum λ,323 nm
same,ε at the UV absorption maximum,26450
